# The other results are listed elsewhere or left out.
# B1: SabA (Helicobacter pylori) (protein)
# chain: MGSSHHHHHHSSGLVPRGSHMENLYFQGEDNGFFVSAGYQIGEAVQMVKNTGELKNLNEKYEQLSQYLNQVASLKQSIQNANNIELVNSSLNYLKSFTNNNYNSTTQSPIFNAVQAVITSVLGFWSLYAGNYFTFFVGKKVGDSGQPASVQGNPPFKTIIENCSGIENCAMDQTTYDKMKKLAEDLQAAQTNSATKGNNLCALSGCAATDSTSNPPNSTVSNALNLAQQLMDLIANTKTAMMWKNIVISGVSNTSGAITSTNYPTQYAVFNNIKAMIPILQQAVTLSQSNHTLSASLQAQATGSQTNPKFAKDIYTFAQNQKQVISYAQDIFNLFNSIPAEQYKYLEKAYLKIPNAGSTPTNPYRQVVNLNQEVQTIKNNVSYYGNRVDAALSVARDVYNLKSNQAEIVTAYNDAKTLSEEISKLPHNQVNTKDIVTLPYDKNAPAAGQSNYQINPEQQSNLNQALAAMSNNPFKKVGMISSQNNNGA
# Key:
# Test in all cases: glycan array binding signal (z-score within array); higher = stronger binding
# Details in all cases: glycan notation: IUPAC condensed, linker removed
# [1] = molecular target: Neu5Ac(a2-6)Gal(b1-4)GlcNAc(b1-2)Man(a1-3)[GlcNAc(b1-4)][Neu5Ac(a2-6)Gal(b1-4)GlcNAc(b1-2)Man(a1-6)]Man(b1-4)GlcNAc(b1-4)GlcNAc
# Method in brief: (§1)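 From the Consortium for Functional Glycomics database, 3228 arrays were curated, keeping only those whose protein sequence was available. Binding is given as a within-array Z-score averaged across arrays sharing a protein sequence and across linkers. Negative Z-scores can be read as non-binding.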
# [2] = molecular target: Neu5Ac(a2-6)Gal(b1-4)GlcNAc(b1-2)Man(a1-3)[Man(a1-6)]Man(b1-4)GlcNAc(b1-4)GlcNAc
# Method in brief: as §1
# [3] = molecular target: Neu5Ac(a2-6)Gal(b1-4)GlcNAc(b1-2)Man(a1-3)[Neu5Ac(a2-3)Gal(b1-4)GlcNAc(b1-2)Man(a1-6)]Man(b1-4)GlcNAc(b1-4)GlcNAc
# Method in brief: as §1
# [4] = molecular target: Neu5Ac(a2-6)Gal(b1-4)GlcNAc(b1-2)Man(a1-3)[Neu5Ac(a2-6)Gal(b1-4)GlcNAc(b1-2)Man(a1-6)]Man(b1-4)GlcNAc(b1-4)GlcNAc
# Method in brief: as §1
# [5] = molecular target: Neu5Ac(a2-6)Gal(b1-4)GlcNAc(b1-2)Man(a1-3)[Neu5Ac(a2-6)Gal(b1-4)GlcNAc(b1-2)Man(a1-6)]Man(b1-4)GlcNAc(b1-4)[Fuc(a1-6)]GlcNAc
# Method in brief: as §1
# [6] = molecular target: Neu5Ac(a2-6)Gal(b1-4)GlcNAc(b1-2)Man(a1-6)Man(b1-4)GlcNAc(b1-4)GlcNAc
# Method in brief: as §1
# [7] = molecular target: Neu5Ac(a2-6)Gal(b1-4)GlcNAc(b1-2)Man(a1-6)[Gal(b1-4)GlcNAc(b1-2)Man(a1-3)]Man(b1-4)GlcNAc(b1-4)GlcNAc
# Method in brief: as §1
# [8] = molecular target: Neu5Ac(a2-6)Gal(b1-4)GlcNAc(b1-2)Man(a1-6)[GlcNAc(b1-2)Man(a1-3)]Man(b1-4)GlcNAc(b1-4)GlcNAc
# Method in brief: as §1
# [9] = molecular target: Neu5Ac(a2-6)Gal(b1-4)GlcNAc(b1-2)Man(a1-6)[Man(a1-3)]Man(b1-4)GlcNAc(b1-4)GlcNAc
# Method in brief: as §1
# [10] = molecular target: Neu5Ac(a2-6)Gal(b1-4)GlcNAc(b1-2)[Neu5Ac(a2-6)Gal(b1-4)GlcNAc(b1-4)]Man(a1-3)[GlcNAc(b1-4)][Neu5Ac(a2-6)Gal(b1-4)GlcNAc(b1-2)[Neu5Ac(a2-6)Gal(b1-4)GlcNAc(b1-6)]Man(a1-6)]Man(b1-4)GlcNAc(b1-4)GlcNAc
# Method in brief: as §1
# [11] = molecular target: Neu5Ac(a2-6)Gal(b1-4)GlcNAc(b1-2)[Neu5Ac(a2-6)Gal(b1-4)GlcNAc(b1-4)]Man(a1-3)[GlcNAc(b1-4)][Neu5Ac(a2-6)Gal(b1-4)GlcNAc(b1-4)Man(a1-6)]Man(b1-4)GlcNAc(b1-4)GlcNAc
# Method in brief: as §1
# [12] = molecular target: Neu5Ac(a2-6)Gal(b1-4)GlcNAc(b1-2)[Neu5Ac(a2-6)Gal(b1-4)GlcNAc(b1-6)]Man(a1-6)[Neu5Ac(a2-6)Gal(b1-4)GlcNAc(b1-2)Man(a1-3)][GlcNAc(b1-4)]Man(b1-4)GlcNAc(b1-4)GlcNAc
# Method in brief: as §1
# [13] = molecular target: Neu5Ac(a2-6)Gal(b1-4)GlcNAc(b1-3)Gal(b1-3)GlcNAc
# Method in brief: as §1
# [14] = molecular target: Neu5Ac(a2-6)Gal(b1-4)GlcNAc(b1-3)Gal(b1-4)GlcNAc
# Method in brief: as §1
# [15] = molecular target: Neu5Ac(a2-6)Gal(b1-4)GlcNAc(b1-3)Gal(b1-4)GlcNAc(b1-2)Man(a1-3)[Neu5Ac(a2-6)Gal(b1-4)GlcNAc(b1-3)Gal(b1-4)GlcNAc(b1-2)Man(a1-6)]GalNAc
# Method in brief: as §1
# [16] = molecular target: Neu5Ac(a2-6)Gal(b1-4)GlcNAc(b1-3)Gal(b1-4)GlcNAc(b1-3)Gal(b1-4)GlcNAc
# Method in brief: as §1
# [17] = molecular target: Neu5Ac(a2-6)Gal(b1-4)GlcNAc(b1-3)Gal(b1-4)GlcNAc(b1-3)Gal(b1-4)GlcNAc(b1-2)Man(a1-3)[Neu5Ac(a2-6)Gal(b1-4)GlcNAc(b1-3)Gal(b1-4)GlcNAc(b1-3)Gal(b1-4)GlcNAc(b1-2)Man(a1-6)]GalNAc
# Method in brief: as §1
# [18] = molecular target: Neu5Ac(a2-6)Gal(b1-4)GlcNAc(b1-3)Gal(b1-4)GlcNAc(b1-3)GalNAc
# Method in brief: as §1
# [19] = molecular target: Neu5Ac(a2-6)Gal(b1-4)GlcNAc(b1-3)Gal(b1-4)GlcNAc(b1-3)[Neu5Ac(a2-6)Gal(b1-4)GlcNAc(b1-3)Gal(b1-4)GlcNAc(b1-6)]GalNAc
# Method in brief: as §1
# [20] = molecular target: Neu5Ac(a2-6)Gal(b1-4)GlcNAc(b1-3)Gal(b1-4)GlcNAc(b1-6)[Gal(b1-3)]GalNAc
# Method in brief: as §1
# [21] = molecular target: Neu5Ac(a2-6)Gal(b1-4)GlcNAc(b1-3)Gal(b1-4)[Fuc(a1-3)]GlcNAc(b1-3)Gal(b1-4)[Fuc(a1-3)]GlcNAc
# Method in brief: as §1
# [22] = molecular target: Neu5Ac(a2-6)Gal(b1-4)GlcNAc(b1-3)GalNAc
# Method in brief: as §1
# [23] = molecular target: Neu5Ac(a2-6)Gal(b1-4)GlcNAc(b1-3)[Neu5Ac(a2-6)Gal(b1-4)GlcNAc(b1-6)]GalNAc
# Method in brief: as §1
# [24] = molecular target: Neu5Ac(a2-6)Gal(b1-4)GlcNAc(b1-6)GalNAc
# Method in brief: as §1
# [25] = molecular target: Neu5Ac(a2-6)Gal(b1-4)GlcNAc(b1-6)[Gal(b1-3)GlcNAc(b1-3)]Gal(b1-4)Glc
# Method in brief: as §1
# [26] = molecular target: Neu5Ac(a2-6)Gal(b1-4)GlcNAc(b1-6)[Gal(b1-3)]GalNAc
# Method in brief: as §1
# [27] = molecular target: Neu5Ac(a2-6)Gal(b1-4)GlcNAc6S
# Method in brief: as §1
# Neu5Ac(a2-6)GalNAc = molecular target: Neu5Ac(a2-6)GalNAc
# Method in brief: as §1
# [28] = molecular target: Neu5Ac(a2-6)GalNAc(b1-4)GlcNAc
# Method in brief: as §1
# [29] = molecular target: Neu5Ac(a2-6)GalNAc(b1-4)GlcNAc6S
# Method in brief: as §1
# [30] = molecular target: Neu5Ac(a2-6)GlcNAc(b1-4)GlcNAc
# Method in brief: as §1
binder,measurement,setting,value
B1,glycan array binding signal (z-score),[1],-0.273
same,glycan array binding signal (z-score),[2],-0.257
same,glycan array binding signal (z-score),[3],-0.588
same,glycan array binding signal (z-score),[4],0.38
same,glycan array binding signal (z-score),[5],-0.576
same,glycan array binding signal (z-score),[6],-0.43
same,glycan array binding signal (z-score),[7],-0.045
same,glycan array binding signal (z-score),[8],-0.172
same,glycan array binding signal (z-score),[9],-0.358
same,glycan array binding signal (z-score),[10],-0.496
same,glycan array binding signal (z-score),[11],0.247
same,glycan array binding signal (z-score),[12],-0.507
same,glycan array binding signal (z-score),[13],-0.482
same,glycan array binding signal (z-score),[14],-0.335
same,glycan array binding signal (z-score),[15],0.572
same,glycan array binding signal (z-score),[16],0.008
same,glycan array binding signal (z-score),[17],0.784
same,glycan array binding signal (z-score),[18],0.056
same,glycan array binding signal (z-score),[19],-0.366
same,glycan array binding signal (z-score),[20],-0.367
same,glycan array binding signal (z-score),[21],-0.74
same,glycan array binding signal (z-score),[22],0.083
same,glycan array binding signal (z-score),[23],-0.055
same,glycan array binding signal (z-score),[24],0.426
same,glycan array binding signal (z-score),[25],-0.126
same,glycan array binding signal (z-score),[26],-0.359
same,glycan array binding signal (z-score),[27],-0.733
same,glycan array binding signal (z-score),Neu5Ac(a2-6)GalNAc,-0.422
same,glycan array binding signal (z-score),[28],-0.153
same,glycan array binding signal (z-score),[29],-0.819
same,glycan array binding signal (z-score),[30],-0.998

# An excerpt of the results above, for reference:
binder,measurement,setting,value
B1,glycan array binding signal (z-score),[4],0.38
same,glycan array binding signal (z-score),[5],-0.576
same,glycan array binding signal (z-score),[6],-0.43
same,glycan array binding signal (z-score),[7],-0.045
same,glycan array binding signal (z-score),[8],-0.172
same,glycan array binding signal (z-score),[9],-0.358

# Reference: the supplement of paper PMC8728848
